Assay [1] concerns the target endogenous LRRK2 (Leucine-rich repeat kinase 2) (mouse (endogenous in SN4741 and in mouse ventral midbrain)) (UniProt Q5S006). Briefly: affinity purification with mass spectrometry; SN4741 cells, endogenous LRRK2 immunoprecipitated; buffer with 0.1% sodium deoxycholate, tryptic digestion directly on beads, LC-MS/MS; only proteins absent in the IgG control counted.
Assay [2] shares this target. Briefly: affinity purification with mass spectrometry; SN4741 cells, endogenous LRRK2 immunoprecipitated; NP40 buffer, SDS-PAGE, Coomassie staining, in-gel tryptic digestion, LC-MS/MS; only proteins absent in the IgG control counted.
For assay [3] the target is unchanged. Briefly: affinity purification with mass spectrometry; SN4741 cells, endogenous LRRK2 immunoprecipitated, LC-MS/MS; which of the two protocols (NP40 in-gel, sodium deoxycholate on-beads) gave this hit is not given.

Protein sequences, listed by entry. Tags and fused reporters are not part of them.
UniProt Q5S006: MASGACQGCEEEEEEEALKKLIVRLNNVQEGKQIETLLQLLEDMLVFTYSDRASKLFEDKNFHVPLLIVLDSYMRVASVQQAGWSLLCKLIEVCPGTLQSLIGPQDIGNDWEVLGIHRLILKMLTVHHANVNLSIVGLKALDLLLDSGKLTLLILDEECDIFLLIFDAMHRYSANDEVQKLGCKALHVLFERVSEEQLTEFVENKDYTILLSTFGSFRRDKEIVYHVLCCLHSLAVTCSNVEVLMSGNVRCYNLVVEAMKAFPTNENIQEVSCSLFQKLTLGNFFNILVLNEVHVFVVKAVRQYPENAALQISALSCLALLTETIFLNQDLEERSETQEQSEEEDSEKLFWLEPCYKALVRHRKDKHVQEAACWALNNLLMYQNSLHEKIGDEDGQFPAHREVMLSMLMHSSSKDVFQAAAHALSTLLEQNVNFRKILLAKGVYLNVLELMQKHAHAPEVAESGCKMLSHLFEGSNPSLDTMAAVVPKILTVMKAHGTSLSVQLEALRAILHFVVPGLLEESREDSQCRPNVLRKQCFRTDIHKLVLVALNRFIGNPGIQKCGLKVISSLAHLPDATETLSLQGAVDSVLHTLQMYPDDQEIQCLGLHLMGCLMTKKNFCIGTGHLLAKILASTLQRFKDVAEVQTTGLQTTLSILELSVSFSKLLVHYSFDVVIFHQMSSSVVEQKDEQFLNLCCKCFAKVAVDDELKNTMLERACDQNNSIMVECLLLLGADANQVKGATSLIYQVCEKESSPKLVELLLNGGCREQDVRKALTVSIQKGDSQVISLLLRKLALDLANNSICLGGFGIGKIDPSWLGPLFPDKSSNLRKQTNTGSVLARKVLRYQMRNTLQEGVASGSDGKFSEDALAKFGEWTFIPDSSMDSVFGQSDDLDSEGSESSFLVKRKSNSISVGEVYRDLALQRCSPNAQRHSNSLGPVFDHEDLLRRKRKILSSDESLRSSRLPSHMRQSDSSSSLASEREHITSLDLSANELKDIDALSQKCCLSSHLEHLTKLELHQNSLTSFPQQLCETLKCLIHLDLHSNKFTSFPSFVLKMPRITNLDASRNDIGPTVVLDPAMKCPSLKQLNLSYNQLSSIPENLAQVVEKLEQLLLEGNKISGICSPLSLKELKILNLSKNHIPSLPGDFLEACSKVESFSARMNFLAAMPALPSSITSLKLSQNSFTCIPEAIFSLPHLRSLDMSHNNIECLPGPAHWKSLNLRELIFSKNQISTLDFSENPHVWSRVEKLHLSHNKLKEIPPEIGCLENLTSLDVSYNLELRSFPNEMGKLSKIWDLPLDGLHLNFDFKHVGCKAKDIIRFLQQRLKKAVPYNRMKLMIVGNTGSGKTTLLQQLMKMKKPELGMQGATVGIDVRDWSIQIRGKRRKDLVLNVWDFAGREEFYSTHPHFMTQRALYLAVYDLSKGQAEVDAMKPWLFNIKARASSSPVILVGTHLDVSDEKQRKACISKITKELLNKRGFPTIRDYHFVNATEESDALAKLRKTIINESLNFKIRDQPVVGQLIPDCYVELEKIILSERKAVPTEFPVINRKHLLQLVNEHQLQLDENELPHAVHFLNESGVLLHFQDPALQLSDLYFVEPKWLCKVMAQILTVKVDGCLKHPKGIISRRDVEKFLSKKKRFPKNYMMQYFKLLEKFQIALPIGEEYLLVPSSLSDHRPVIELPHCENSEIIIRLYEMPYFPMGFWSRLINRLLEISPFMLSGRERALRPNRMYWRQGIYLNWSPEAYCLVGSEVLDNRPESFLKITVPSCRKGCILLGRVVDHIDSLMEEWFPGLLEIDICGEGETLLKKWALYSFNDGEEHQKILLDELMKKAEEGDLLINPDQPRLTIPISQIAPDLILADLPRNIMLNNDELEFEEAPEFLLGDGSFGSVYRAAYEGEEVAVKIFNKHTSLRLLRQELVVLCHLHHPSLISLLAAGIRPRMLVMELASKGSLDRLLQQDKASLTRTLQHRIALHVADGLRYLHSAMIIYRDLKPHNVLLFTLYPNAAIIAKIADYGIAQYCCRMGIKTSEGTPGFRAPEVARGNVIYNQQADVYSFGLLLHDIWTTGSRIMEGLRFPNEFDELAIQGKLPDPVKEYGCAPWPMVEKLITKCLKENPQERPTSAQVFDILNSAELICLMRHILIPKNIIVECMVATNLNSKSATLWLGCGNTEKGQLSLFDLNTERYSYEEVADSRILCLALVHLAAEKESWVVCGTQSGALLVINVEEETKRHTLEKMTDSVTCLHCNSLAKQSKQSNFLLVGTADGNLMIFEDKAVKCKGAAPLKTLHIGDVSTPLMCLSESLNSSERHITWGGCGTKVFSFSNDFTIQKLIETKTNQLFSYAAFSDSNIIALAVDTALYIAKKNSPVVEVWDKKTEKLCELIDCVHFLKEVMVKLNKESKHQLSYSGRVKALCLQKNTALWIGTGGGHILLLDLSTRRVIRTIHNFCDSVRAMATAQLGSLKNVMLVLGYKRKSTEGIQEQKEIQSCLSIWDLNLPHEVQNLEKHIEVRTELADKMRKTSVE

No constants are given. Whether binding was seen depends on the method and setting. In cells and extracts the contact can be indirect. These calls come from enrichment with a bait or labelling near it, and not all partners need be listed.

B1: BEN domain-containing protein 3 (endogenous, SN4741) (protein, UniProt Q6PAL0 1-825)
chain: MNSTEISEDVEEVLKNNPVKAEGSDATLDCSRNSRASEKHLLESVLTALHDSSKRKQLDSDGQPDSVPSVKRRRLIPEALLAGMRTRENSSPCQGNGEPASRGRSGSCAWPAEEEPSTEATVPSYKKPLYGISHKIMEKKNPPSGDLLSPYELFEKANSSSGPSPLRLLSESQKRECGVGVATDGDLNIYFLIQKMFYMLNGLTTNMSQLHSKMDLLSLEVSRVKKQVSPSELVAKFQPPPEYQLTASELKQIAEQSLSCGDLACRLLLQLFPELFSDVDFSRGCSACGFAAKRKLESLHLQLIRNYVEVYYPNVKDTAVWQAECLPQLNDFFSRFWAQREMEDSQPGGQVTNFFEADQVDAGHFLDNKDQEEALSLDRSSTIASDHVVDTQDLTEFLDEASSPGEFAVFLLHRLFPELFDHRKLGEQYSCYGDGGKQELDPQRLQIIRNYTEIYFPDMQEEEAWLQQCAQRINDELEGLGLEGGSEGEAPRDDCYDSSSLPDDISVVKVEDNFEGERPGRRSKKIWLVPIDFDKLEIPQPDFEMPGSDCLLSKEQLRSIYESSLSIGNFASRLLVHLFPELFTHENLRKQYNCSGSLGKKQLDPARIRLIRHYVQLLYPRAKNDRVWTLEFVGKLDERCRRRDTEQRRSYQQQRKVHVPGPECRDLASYAINPERFREEFEGPPLPPERSSKDFCKIPLDELVVPSPDFPVPSPYLLSDKEVREIVQQSLSVGNFAARLLVRLFPELFTTENLRLQYNHSGACNKKQLDPTRLRLIRHYVEAVYPVEKMEEVWHYECIPSIDERCRRPNRKKCDILKKAKKVEK
As to B1, the binding result in assay [1] and in assay [2] was “binds” throughout.

B2: Lipoma-preferred partner (endogenous, mouse) (protein, UniProt Q8BFW7 1-613)
chain: MSHPSWLPPKSTGEPLGHVPARMETTHSFGNPSISVSTQQPPKKYAPVVAPKPKYNPYKQPGGEGDLLPPPPPPLEDPGTIPPGPGHFPPPPPLDEGAFKVQQGNPGGKTLEERRSSLDAEIDSLTSILADLECSSPYKPRPPQGSASSIASPPVSTPVTGHKRMVIPQQPPLTATKKSATKPQPAPQAAPIPVTPIGTLKPQPQPVPASYTTASTSSRPTFNVQVKSAQPSPHYMAGPSSGQIYGPGPRGYNNQPVPVSGQCPPPPTCVGTDYAYIPPSGHPPESGYGYTSNQGRYYEPYYAAGPSYGGRSEGDTAYGQQVQPNTWKREAAYAPPASGNQNHPGMYPVSGPKKTYITDPVSAPCAPPLQPKGGYPGPMGPPSIPPSFRPEDELEHLTKKMLYDMENPPADDYFGRCARCGENVVGEGTGCTAMDQVFHVDCFTCIVCDVKLRGQPFYAVEKKAYCEPCYINTLEQCSVCSKPIMERILRATGKAYHPHCFTCVMCHRSLDGIPFTVDACGLIHCIEDFHKKFAPRCSVCKEPIMPAPGQEETVRIVALDRDFHVHCYRCEDCGGLLSEGDNQGCYPLDGHILCKTCNSARIRVLTAKASTDL
Take B2: the binding entry in assay [3] is listed as “binds”.

Source of the values: publication PMC5505151, “A proteomic analysis of LRRK2 binding partners reveals interactions with multiple signaling components of the WNT/PCP pathway” (Molecular Neurodegeneration, 2017).
